Laboratory results as given in publication PMC4735695.
No constants are given. Whether binding was seen depends on the method and setting. In cells and extracts the contact can be indirect. Some binding calls cover weakened binding; strength is not graded here.

Chains of the proteins cited; added tags and fusions are not shown. Lines headed by an entry give the natural chain unless they say otherwise; changes in a name come on top.
UniProt P60953: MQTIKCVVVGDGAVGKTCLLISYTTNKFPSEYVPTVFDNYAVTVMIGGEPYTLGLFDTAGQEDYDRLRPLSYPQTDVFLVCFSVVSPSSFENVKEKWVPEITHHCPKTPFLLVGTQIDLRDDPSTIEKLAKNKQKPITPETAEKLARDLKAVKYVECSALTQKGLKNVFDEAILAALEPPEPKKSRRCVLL
UniProt Q6XZF7: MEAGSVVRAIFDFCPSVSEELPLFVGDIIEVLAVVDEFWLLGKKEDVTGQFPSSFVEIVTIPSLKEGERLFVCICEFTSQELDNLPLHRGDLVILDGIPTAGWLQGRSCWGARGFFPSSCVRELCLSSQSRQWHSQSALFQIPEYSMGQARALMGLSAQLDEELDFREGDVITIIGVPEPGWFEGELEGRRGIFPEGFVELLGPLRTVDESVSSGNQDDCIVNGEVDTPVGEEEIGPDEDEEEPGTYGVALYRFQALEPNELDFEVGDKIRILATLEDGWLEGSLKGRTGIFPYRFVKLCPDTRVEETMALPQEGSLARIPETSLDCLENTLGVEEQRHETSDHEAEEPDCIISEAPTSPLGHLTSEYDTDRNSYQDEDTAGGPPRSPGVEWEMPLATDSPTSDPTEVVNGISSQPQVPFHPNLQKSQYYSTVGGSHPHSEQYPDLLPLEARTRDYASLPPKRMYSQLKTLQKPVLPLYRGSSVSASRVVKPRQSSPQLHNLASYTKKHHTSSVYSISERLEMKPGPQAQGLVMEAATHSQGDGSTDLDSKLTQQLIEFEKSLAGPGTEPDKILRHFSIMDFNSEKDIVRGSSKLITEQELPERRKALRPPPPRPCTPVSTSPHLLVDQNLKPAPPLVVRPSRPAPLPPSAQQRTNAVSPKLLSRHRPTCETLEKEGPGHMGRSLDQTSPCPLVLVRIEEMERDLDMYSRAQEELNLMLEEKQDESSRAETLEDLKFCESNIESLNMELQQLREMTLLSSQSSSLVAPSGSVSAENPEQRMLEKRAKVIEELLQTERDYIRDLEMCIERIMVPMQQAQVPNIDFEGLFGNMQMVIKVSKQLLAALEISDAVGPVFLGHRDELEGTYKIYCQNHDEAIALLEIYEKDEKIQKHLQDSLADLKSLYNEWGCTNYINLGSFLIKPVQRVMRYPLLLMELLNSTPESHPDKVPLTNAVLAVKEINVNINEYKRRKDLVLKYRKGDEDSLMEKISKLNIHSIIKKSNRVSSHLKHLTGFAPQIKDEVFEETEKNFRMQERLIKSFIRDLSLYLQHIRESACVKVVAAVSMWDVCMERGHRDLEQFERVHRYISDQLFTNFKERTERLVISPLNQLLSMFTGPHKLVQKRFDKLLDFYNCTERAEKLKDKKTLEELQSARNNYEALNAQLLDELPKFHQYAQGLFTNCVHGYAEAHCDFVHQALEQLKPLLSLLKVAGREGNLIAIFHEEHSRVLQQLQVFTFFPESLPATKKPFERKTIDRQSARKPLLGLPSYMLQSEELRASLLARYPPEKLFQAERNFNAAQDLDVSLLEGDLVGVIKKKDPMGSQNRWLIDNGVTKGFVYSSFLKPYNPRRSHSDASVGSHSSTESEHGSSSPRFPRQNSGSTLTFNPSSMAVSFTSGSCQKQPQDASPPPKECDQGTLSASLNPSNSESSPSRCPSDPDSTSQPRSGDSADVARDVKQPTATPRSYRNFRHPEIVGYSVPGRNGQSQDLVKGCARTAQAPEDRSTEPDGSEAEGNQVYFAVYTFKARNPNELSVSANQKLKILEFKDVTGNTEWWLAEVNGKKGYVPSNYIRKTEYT

Target: GST-Cdc42-G15A (UniProt P60953)
Assay: pull-down; GST-Cdc42-G15A on beads; lysates of HEK293T cells transfected with HA-Tuba (WT or YF mutant; with or without Flag-Shp2-E76G), lysis buffer 50 mM HEPES pH 7.5, 1% Triton X-100, 150 mM NaCl, 20 mM NaF, 1 mM Na3VO4, 1 mM DTT; precleared with GST beads 10 min at 4 °C; precipitated HA-Tuba seen by western blot with HA antibody; read by the paper as GEF activity; only the target purified

With “HA-Tuba Y430F/Y515F mutant (from UniProt Q6XZF7 1-1577)” the binding was “binds weakly”.
